Consider one molecule from PMC6477676, “Staufen2-mediated RNA recognition and localization requires combinatorial action of multiple domains”.

This assay addresses T1, full-length mouse Staufen2 (mStau2 FL) (mouse), Q8CJ67.
T1 chain: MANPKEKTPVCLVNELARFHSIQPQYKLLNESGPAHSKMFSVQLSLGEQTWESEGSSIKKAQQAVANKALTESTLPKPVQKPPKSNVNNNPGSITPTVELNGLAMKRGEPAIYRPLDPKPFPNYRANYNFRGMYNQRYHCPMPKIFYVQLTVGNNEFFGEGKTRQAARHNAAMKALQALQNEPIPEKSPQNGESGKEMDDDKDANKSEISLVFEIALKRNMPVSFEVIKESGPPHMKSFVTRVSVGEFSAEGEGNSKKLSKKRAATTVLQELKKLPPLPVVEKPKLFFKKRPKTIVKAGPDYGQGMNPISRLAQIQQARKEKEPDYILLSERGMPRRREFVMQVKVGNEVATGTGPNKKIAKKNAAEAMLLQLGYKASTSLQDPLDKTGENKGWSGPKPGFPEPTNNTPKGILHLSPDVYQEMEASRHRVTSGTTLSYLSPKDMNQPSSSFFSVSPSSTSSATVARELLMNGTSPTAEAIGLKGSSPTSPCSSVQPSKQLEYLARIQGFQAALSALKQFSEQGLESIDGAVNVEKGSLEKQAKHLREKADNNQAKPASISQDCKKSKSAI
As to the kind of experiment: SEC-SLS (static light scattering after SEC); SEC on 10/300 Superdex200 Increase, 7 °C, flow rate 0.5 mL per min, 270 Dual Detector and VE3580 RI Detector, calibrated with BSA; both purified. Conditions: remark: other sources report otherwise.

Results are given in words; binding and its absence hold for the method and conditions named.

B1: full-length mouse Staufen2 (mStau2 FL), Q8CJ67 1-570 (protein)
chain: T1 chain
With B1, the binding entry was “no binding”.
